Results as given in patent US20070117842A1, “Polymorph of 4-[3-chloro-4-(cyclopropylaminocarbonyl)aminophenoxy]-7-methoxy-6- quinolinecarboxamide and a process for the preparation of the same” (priority 2003, published 2007).

The chains behind the UniProt entries cited, without tags or fusion partners. Residues count along the entry.
UniProt P10721, 26-976: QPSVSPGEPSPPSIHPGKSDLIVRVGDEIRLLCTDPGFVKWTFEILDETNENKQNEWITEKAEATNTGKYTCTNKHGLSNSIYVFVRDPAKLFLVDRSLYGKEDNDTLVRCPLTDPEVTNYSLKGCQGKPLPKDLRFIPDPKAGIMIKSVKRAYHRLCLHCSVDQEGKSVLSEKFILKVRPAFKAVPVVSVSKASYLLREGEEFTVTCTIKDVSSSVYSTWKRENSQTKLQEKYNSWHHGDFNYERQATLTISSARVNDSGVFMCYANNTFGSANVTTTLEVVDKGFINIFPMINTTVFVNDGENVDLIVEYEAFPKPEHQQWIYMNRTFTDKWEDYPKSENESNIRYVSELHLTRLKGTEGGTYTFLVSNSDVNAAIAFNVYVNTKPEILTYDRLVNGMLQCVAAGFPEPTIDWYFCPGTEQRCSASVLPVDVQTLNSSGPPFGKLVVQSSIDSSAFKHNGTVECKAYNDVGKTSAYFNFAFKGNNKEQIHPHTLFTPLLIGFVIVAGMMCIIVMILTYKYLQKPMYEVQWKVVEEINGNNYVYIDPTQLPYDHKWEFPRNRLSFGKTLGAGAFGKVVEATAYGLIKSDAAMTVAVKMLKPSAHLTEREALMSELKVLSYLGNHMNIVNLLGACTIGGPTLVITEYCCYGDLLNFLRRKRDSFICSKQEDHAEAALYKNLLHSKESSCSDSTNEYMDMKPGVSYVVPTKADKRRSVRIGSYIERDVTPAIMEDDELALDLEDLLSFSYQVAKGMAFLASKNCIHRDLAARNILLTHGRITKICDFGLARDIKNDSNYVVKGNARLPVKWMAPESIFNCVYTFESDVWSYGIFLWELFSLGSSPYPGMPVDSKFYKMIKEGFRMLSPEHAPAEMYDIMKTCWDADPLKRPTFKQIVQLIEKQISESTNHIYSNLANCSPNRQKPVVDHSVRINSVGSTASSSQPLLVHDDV

Experiments:
[1] = system: small cell lung cancer cell line H-526 expressing c-Kit kinase; assay: Effect on cell proliferation stimulated by SCF; assay type: cell-based; conditions: Homo sapiens, NCI-H526; H-526 cells, SCF stimulation, 7th day, Cell Counting Kit-8; read-out: IC50 (concentration required for 50% inhibition of the cell proliferation)
Procedure: 4-(3-Chloro-4-(cyclopropylaminocarbonyl)aminophenoxy)-7-methoxy-6-quinolinecarboxamide was tested for their effects on the proliferation of the small cell lung cancer cell line H-526 expressing c-Kit kinase (purchased from ATCC: CRL-5811). 4-(3-Chloro-4-(cyclopropylaminocarbonyl)aminophenoxy)-7-methoxy-6-quinolinecarboxamide was prepared similarly to the method described in Preparation Examples 1 to 3. H-526 cells were cultured in a 5% CO2 incubator (37° c.) using an RPMI1640 medium (Nissui Pharmaceutical Co., Ltd.) containing 10% FCS (purchased from Cell Culture Technologies). After culturing, H-526 cells were washed with PBS three times and were suspended in an RPMI1640 medium containing 0.1% BSA (Sigma Corporation) (hereinafter abbreviated as “BSA-RPMI1640”) at 1.0×10^5 cells/ml. […] After color development, the absorbance of each well was determined using a MTP-32 plate reader (Colona Electric Co., Ltd.) at a measuring wavelength of 450 nm and at a reference wavelength of 660 nm. The absorbance of each well was subtracted by the absorbance of the well without addition of SCF, and then the ratio of the absorbance of the well with addition of the test substance to the ratio of the absorbance of the well without addition of the test substance was determined. […]

[2] = target: c-Kit kinase (Homo sapiens, UniProt P10721); assay: Effect on c-Kit kinase phosphorylation by SCF stimulation (immunoblot); assay type: cell-based; set-up: in the small cell lung cancer cell line H-526 expressing c-Kit kinase; host or cells: H-526 small cell lung cancer cells; conditions: H-526 cells
Procedure: 4-(3-Chloro-4-(cyclopropylaminocarbonyl)aminophenoxy)-7-methoxy-6-quinolinecarboxamide was tested for its effect on the phosphorylation of the c-Kit kinase molecule by SCF stimulation in the small cell lung cancer cell line H-526 expressing c-Kit kinase.
H-526 cells were cultured in a 5% CO2 incubator (37° c.) using an RPMI1640 medium containing 10% FCS. After culturing, H-526 cells were washed with PBS three times and were suspended in a BSA-RPMI1640 medium at 5.0×10^5 cells/ml. Each 1 ml of this cell suspension was inoculated to the well of a 24-well plate and the suspension was cultured in a 5% CO2 incubator (37° c.) for 6 hours. After 6-hours culturing, 1 ml of BSA-RPMI1640 containing a diluted test substance (4-(3-Chloro-4-(cyclopropylaminocarbonyl)aminophenoxy)-7-methoxy-6-quinolinecarboxamide) was added to each well and culturing was carried out in a 5% CO2 incubator (37° c.) for 1 hour. Additional culturing was then carried out in a 5% CO2 incubator (37° c.) for 5 minutes after the addition of 10 μl of SCF (10 μg/ml, R&D Corporation). After 5-minutes culturing, the cells were washed with PBS and 100 μl of SDS sample loading buffer was added to the cells to prepare a cell lysate sample. After the sample was heat-treated at 94° c. for 10 minutes, it was cryopreserved at −20° c. […]

In the case of `Cc1ccc(NC(=O)c2ccc(CN3CCN(C)CC3)cc2)cc1Nc1nccc(-c2cccnc2)n1` [STI571, reference compound], the IC50 [1] is reported as 190 nM and the “phosphorylation inhibitory activity relative to 4-(3-chloro-4-(cyclopropylaminocarbonyl)aminophenoxy)-7-methoxy-6-quinolinecarboxamide” value [2] is reported as “approximately one tenth”.
